Data as given in patent publication US20250115669A1, “FGFR1/KLB Targeting Agonistic Antigen-Binding Proteins and Conjugates Thereof with GLP-1R Agonistic Peptides” (SANOFI, priority 2020, published 2025).
Some results were stated once for a whole list of compounds, not compound by compound.

Experiment: Plasma concentrations and PK during three subcutaneous administrations in obese cynomolgus monkeys
Format: in vivo, Cynomolgus monkey (Macaca fascicularis)
Conditions: three subsequent subcutaneous administrations
Description: Specifically, plasma concentrations and pharmacokinetic parameters were analyzed during a treatment of three subsequent subcutaneous administrations of 1 and 3 mg/kg in solution to male obese Cynomolgus monkeys. The exposure to both tested antibodies after subcutaneous doses of 1 mg/kg […] were similar. Moreover, plasma concentrations of both compounds were detected up to the end of sampling (i.e. 336 and 504 hours after the 2nd and the 3rd dose, respectively).

Ab0335: IgG4 PE; 16H7 VL (N25S, D49S, D50A, D91E, N93E); 16H7 VH (M34V, I83T, D109E); HC SEQ ID NO: 39, LC SEQ ID NO: 46
plasma concentrations detected up to the end of sampling after the 2nd dose: ≥ 336 h | plasma concentrations detected up to the end of sampling after the 3rd dose: ≥ 504 h
